Publication PMC6440994, “Human RAD51 paralogue SWSAP1 fosters RAD51 filament by regulating the anti-recombinase FIGNL1 AAA+ ATPase” (Nature Communications, 2019)

molecular target: T1, Myc-FIGNL1 (human) (UniProt Q6PIW4); assay: co-IP; Myc-FIGNL1 and FLAG-SWSAP1 (or mutants) co-expressed in 293T, 72 h; benzonase-treated extract; anti-Myc beads 2 h at 4 °C; washes with 150 mM NaCl, 0.25% NP-40; immunoblot
T1 sequence: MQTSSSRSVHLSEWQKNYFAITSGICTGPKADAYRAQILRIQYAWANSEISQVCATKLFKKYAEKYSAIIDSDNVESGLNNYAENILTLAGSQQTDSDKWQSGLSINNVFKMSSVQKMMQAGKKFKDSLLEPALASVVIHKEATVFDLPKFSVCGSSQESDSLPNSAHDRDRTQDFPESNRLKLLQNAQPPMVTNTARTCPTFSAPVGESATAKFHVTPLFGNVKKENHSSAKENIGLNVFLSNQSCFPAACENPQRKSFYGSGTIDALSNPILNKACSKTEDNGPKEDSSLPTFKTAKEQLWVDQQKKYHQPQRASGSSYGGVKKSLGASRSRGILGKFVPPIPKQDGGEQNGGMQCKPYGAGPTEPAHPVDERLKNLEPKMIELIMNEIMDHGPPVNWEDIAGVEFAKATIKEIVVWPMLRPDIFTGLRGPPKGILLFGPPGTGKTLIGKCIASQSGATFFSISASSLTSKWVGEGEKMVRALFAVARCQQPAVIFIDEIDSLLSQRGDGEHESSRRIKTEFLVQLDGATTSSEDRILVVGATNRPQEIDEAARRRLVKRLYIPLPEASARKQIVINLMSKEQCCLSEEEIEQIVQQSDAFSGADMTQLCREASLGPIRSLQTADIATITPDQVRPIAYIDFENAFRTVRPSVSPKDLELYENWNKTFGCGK

binding, binds:
FLAG-SWSAP1-D4N (residues 169–193 deleted) (human)
FLAG-SWSAP1-D4C (residues 194–229 deleted) (human) (domain or fragment)
FLAG-SWSAP1-EE (F23E, A26E) (human)

These are yes or no findings as the source states them, for the method shown. In cells and extracts the contact can be indirect. Binding can be weak; no strength is given. Sequences can lack the tags named with a protein.
